Laboratory results: PubChem BioAssay AID1259405 (NCATS, 2018)
The deposit covers about 50,000 reagents; below is a part drawn at random. In the full data, about 4,000 (8%) were called active. 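Mouse siRNA library applied to hamster cells; one well for each siRNA.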 Reagents against one gene are numbered here. Further read-outs or replicates are left out here. Reagent sequences are not shown.

- Purpose: 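Mouse-designed siRNAs used to find CHO productivity engineering targets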 (primary screen)
- Cells: Chinese hamster CHO-K1 ovary cells with stable secreted eGFP expression
- Reagent: single siRNA against mouse genes, 0.8 pmol siRNA per well (2 µl of 400 nM stock)
- Duration: 3 days
- Measured: 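Per-well intracellular GFP measured by laser scanning cytometry, plus viability from ATP luminescence, each relative to plate median of non-targeting control wells, in %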
- Scale: GFP, % of control: higher = more GFP per well, higher productivity
- Rule for the call: 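a knock-down is called active if GFP reaches 120% or more of non-targeting control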

GFP, % of control, by gene and reagent
Septin1: #1 101 inactive; #2 64.1 inactive
Pik3c2g: #1 51 inactive
Ptprv: #1 82.3 inactive; #2 35.9 inactive; #3 112 inactive
Arf2: #1 57.7 inactive; #2 58.9 inactive; #3 161 active
Glra3: #1 100 inactive; #2 77.6 inactive; #3 71.1 inactive
Hsd3b7: #1 94.9 inactive; #2 71.7 inactive
Uqcrb: #1 19 inactive; #2 87.8 inactive; #3 84 inactive
Adgrd1: #1 121 active; #2 112 inactive; #3 87.3 inactive
Ano6: #1 63.7 inactive; #2 46.5 inactive; #3 78.8 inactive
Psg27: #1 37.7 inactive; #2 159 active; #3 95.1 inactive
Dpp6: #1 90.8 inactive; #2 40.1 inactive; #3 97.5 inactive; #4 70.1 inactive; #5 74.5 inactive; #6 82.1 inactive
Taar7b: #1 97.6 inactive; #2 65.8 inactive; #3 54.7 inactive

Reformatted: entries from further up.
{"gene": "Septin1", "reagent": 2, "GFP, % of control": 64.1, "call": "inactive"}
{"gene": "Pik3c2g", "reagent": 1, "GFP, % of control": 51, "call": "inactive"}
{"gene": "Ptprv", "reagent": 1, "GFP, % of control": 82.3, "call": "inactive"}
